Measurements reported in patent publication US9517222B2, “Method for the treatment of senile dementia of the Alzheimer's type” (Phenomenome Discoveries Inc., priority 2007, dated 2016).
Where no unit stands, none is given here, and values compare only within one read-out.

How the values were obtained:
[1] = Serum ethanolamine phospholipid levels in human cohorts (dementia severity, post-mortem pathology, age) by flow-injection MS/MS
[2] = Serum ethanolamine phospholipid ratios to PtdEt 16:0/18:0 (M01) in human cohorts
[3] = serum, females, post mortem SDAT
[4] = serum, females, post mortem control

CC/C=C\C/C=C\C/C=C\C/C=C\C/C=C\C/C=C\CCC(=O)OC(COCCCCCCCCCCCCCCCCCC)COP(=O)(O)OCCN (centres unmarked) [Metabolite M14, Plasmanyl 18:0/22:6]
Ratio of serum levels ([1]; AD, All to CN, Male): 0.704 | Ratio of serum levels ([1]; ADAS 5-19 to CN, Male): 0.800 | Ratio of serum levels ([1]; ADAS 20-39 to 5-19, Male): 0.832 | Ratio of serum levels ([1]; ADAS 20-39 to CN, Male): 0.666 | Ratio of serum levels ([1]; ADAS 40-70 to 5-19, Male): 0.691 | Ratio of serum levels ([1]; ADAS 40-70 to 20-39, Male): 0.830 | Ratio of serum levels ([1]; ADAS 40-70 to CN, Male): 0.553 | Serum level, Mean ([1]; Cognitive Normal, Female): 0.046 | Average serum level, Mean ([1]; Cognitive Normal, Male): 0.051 | Serum level, Mean ([1]; Post Mortem Ctl, Male): 0.025 | Serum level, Mean ([1]; Post Mortem SDAT Male): 0.021 | Ratio of serum levels ([1]; Post mortem SDAT vs Control, Male): 0.429 | Serum level, Mean ([1]; SDAT, ADAS 5-19, Female): 0.040 | Average serum level, Mean ([1]; SDAT, ADAS 5-19, Male): 0.041 | Serum level, Mean ([1]; SDAT, ADAS 20-39, Female): 0.034 | Average serum level, Mean ([1]; SDAT, ADAS 20-39, Male): 0.034 | Serum level, Mean ([1]; SDAT, ADAS 40-70, Female): 0.033 | Average serum level, Mean ([1]; SDAT, ADAS 40-70, Male): 0.028 | Serum level, Mean ([1]; SDAT_all, Female): 0.035 | Average serum level, Mean ([1]; SDAT_all, Male): 0.036 | Ratio, ADAS 5-19 to CN, Female ([1]; serum level ratio, females, ADAS 5-19 vs CN): 0.869 | Ratio, ADAS 20-39 to 5-19, Female ([1]; serum level ratio, females, ADAS 20-39 vs ADAS 5-19): 0.858 | Ratio, ADAS 20-39 to CN, Female ([1]; serum level ratio, females, ADAS 20-39 vs CN): 0.746 | Ratio, ADAS 40-70 to 5-19, Female ([1]; serum level ratio, females, ADAS 40-70 vs ADAS 5-19): 0.833 | Ratio, ADAS 40-70 to 20-39, Female ([1]; serum level ratio, females, ADAS 40-70 vs ADAS 20-39): 0.971 | Ratio, ADAS 40-70 to CN, Female ([1]; serum level ratio, females, ADAS 40-70 vs CN): 0.724 | Ratio, 50-59 vs. 40-49, Female ([1]; serum level ratio, females, age 50-59 vs 40-49): 0.981 | Ratio, 60-69 vs. 40-49, Female ([1]; serum level ratio, females, age 60-69 vs 40-49): 0.953 | Ratio, 70+ vs. 40-49, Female ([1]; serum level ratio, females, age 70+ vs 40-49): 1.149 | Ratio, AD, All to CN, Female ([1]; serum level ratio, females, all AD vs cognitively normal): 0.772 | Ratio, Autopsy AD vs. Control, Female ([1]; serum level ratio, females, autopsy AD vs control): 0.904 | Ratio, 50-59 vs. 40-49, Male ([1]; serum level ratio, males, age 50-59 vs 40-49): 1.383 | Ratio, 60-69 vs. 40-49, Male ([1]; serum level ratio, males, age 60-69 vs 40-49): 1.536 | Ratio, 70+ vs. 40-49, Male ([1]; serum level ratio, males, age 70+ vs 40-49): 1.802 | Mean serum level, Age Ctl, 30-39, Female ([1]; serum, females, age 30-39): 0.040 | Mean serum level, Age Ctl, 40-49, Female ([1]; serum, females, age 40-49): 0.043 | Mean serum level, Age Ctl, 50-59, Female ([1]; serum, females, age 50-59): 0.042 | Mean serum level, Age Ctl, 60-69, Female ([1]; serum, females, age 60-69): 0.041 | Mean serum level, Age Ctl, 70+, Female ([1]; serum, females, age 70+): 0.049 | Mean serum level, Post Mortem SDAT, Female [1, 3]: 0.011 | Mean serum level, Post Mortem Ctl, Female [1, 4]: 0.023 | Mean serum level, Age Ctl, 30-39, Male ([1]; serum, males, age 30-39): 0.034 | Mean serum level, Age Ctl, 40-49, Male ([1]; serum, males, age 40-49): 0.026 | Mean serum level, Age Ctl, 50-59, Male ([1]; serum, males, age 50-59): 0.036 | Mean serum level, Age Ctl, 60-69, Male ([1]; serum, males, age 60-69): 0.040 | Mean serum level, Age Ctl, 70+, Male ([1]; serum, males, age 70+): 0.047 | Ratio of ethanolamine phospholipid ratios to M01 between cohorts ([2]; AD, All to CN, Male): 0.701 | Ratio of ethanolamine phospholipid ratios to M01 between cohorts ([2]; ADAS 5-19 to CN, Male): 0.787 | Ratio of ethanolamine phospholipid ratios to M01 between cohorts ([2]; ADAS 20-39 to CN, Male): 0.680 | Ratio of ethanolamine phospholipid ratios to M01 between cohorts ([2]; ADAS 40-70 to CN, Male): 0.576 | Average serum ethanolamine phospholipid ratio to M01, Mean ([2]; Cognitive Normal, Male, serum): 0.442 | Average serum ethanolamine phospholipid ratio to M01, Mean ([2]; SDAT, ADAS 5-19, Male, serum): 0.348 | Average serum ethanolamine phospholipid ratio to M01, Mean ([2]; SDAT, ADAS 20-39, Male, serum): 0.301 | Average serum ethanolamine phospholipid ratio to M01, Mean ([2]; SDAT, ADAS 40-70, Male, serum): 0.255 | Average serum ethanolamine phospholipid ratio to M01, Mean ([2]; SDAT_all, Male, serum): 0.310 | Ethanolamine Phospholipid Ratio to M01, Mean, Age Ctl, 30-39, Female ([2]; human serum, females aged 30-39): 0.379 | Ethanolamine Phospholipid Ratio to M01, Mean, Age Ctl, 40-49, Female ([2]; human serum, females aged 40-49): 0.381 | Ethanolamine Phospholipid Ratio to M01, Mean, Age Ctl, 50-59, Female ([2]; human serum, females aged 50-59): 0.414 | Ratio of Ethanolamine Phospholipid Ratio to M01, 50-59 vs. 40-49, Female ([2]; human serum, females aged 50-59 vs. females aged 40-49): 1.088 | Ethanolamine Phospholipid Ratio to M01, Mean, Age Ctl, 60-69, Female ([2]; human serum, females aged 60-69): 0.333 | Ratio of Ethanolamine Phospholipid Ratio to M01, 60-69 vs. 40-49, Female ([2]; human serum, females aged 60-69 vs. females aged 40-49): 0.876 | Ethanolamine Phospholipid Ratio to M01, Mean, Age Ctl, 70+_Female ([2]; human serum, females aged 70+): 0.412 | Ratio of Ethanolamine Phospholipid Ratio to M01, 70+ vs. 40-49, Female ([2]; human serum, females aged 70+ vs. females aged 40-49): 1.083 | Ratio of Ethanolamine Phospholipid Ratio to M01, 50-59 vs. 40-49, Male ([2]; human serum, males aged 50-59 vs. males aged 40-49): 1.372 | Ratio of Ethanolamine Phospholipid Ratio to M01, 60-69 vs. 40-49, Male ([2]; human serum, males aged 60-69 vs. males aged 40-49): 1.306 | Ratio of Ethanolamine Phospholipid Ratio to M01, 70+ vs. 40-49, Male ([2]; human serum, males aged 70+ vs. males aged 40-49): 1.500 | Ratio of ethanolamine phospholipid ratio to M01, ADAS 5-19 to CN, Female ([2]; serum, females, ADAS 5-19 vs cognitive normal): 0.935 | Ratio of ethanolamine phospholipid ratio to M01, ADAS 20-39 to 5-19, Female ([2]; serum, females, ADAS 20-39 vs ADAS 5-19): 0.844 | Ratio of ethanolamine phospholipid ratio to M01, ADAS 20-39 to CN, Female ([2]; serum, females, ADAS 20-39 vs cognitive normal): 0.789 | Ratio of ethanolamine phospholipid ratio to M01, ADAS 40-70 to 5-19, Female ([2]; serum, females, ADAS 40-70 vs ADAS 5-19): 0.761 | Ratio of ethanolamine phospholipid ratio to M01, ADAS 40-70 to 20-39, Female ([2]; serum, females, ADAS 40-70 vs ADAS 20-39): 0.902 | Ratio of ethanolamine phospholipid ratio to M01, ADAS 40-70 to CN, Female ([2]; serum, females, ADAS 40-70 vs cognitive normal): 0.711 | Ethanolamine phospholipid ratio to M01, Mean, SDAT, ADAS 5-19, Female ([2]; serum, females, SDAT ADAS 5-19): 0.367 | Ethanolamine phospholipid ratio to M01, Mean, SDAT, ADAS 20-39, Female ([2]; serum, females, SDAT ADAS 20-39): 0.309 | Ethanolamine phospholipid ratio to M01, Mean, SDAT, ADAS 40-70, Female ([2]; serum, females, SDAT ADAS 40-70): 0.279 | Ratio of ethanolamine phospholipid ratio to M01, AD, All to CN, Female ([2]; serum, females, all AD vs cognitive normal): 0.802 | Ethanolamine phospholipid ratio to M01, Mean, SDAT_all Female ([2]; serum, females, all SDAT): 0.315 | Ratio of ethanolamine phospholipid ratio to M01, Autopsy AD vs. Control, Female ([2]; serum, females, autopsy AD vs post mortem control): 1.071 | Ethanolamine phospholipid ratio to M01, Mean, Cognitive Normal, Female ([2]; serum, females, cognitive normal): 0.392 | Ethanolamine phospholipid ratio to M01, Mean, Post Mortem SDAT Female [2, 3]: 0.155 | Ethanolamine phospholipid ratio to M01, Mean, Post Mortem Ctl, Female [2, 4]: 0.144 | Ratio of ethanolamine phospholipid ratio to M01, ADAS 20-39 to 5-19, Male ([2]; serum, males, SDAT ADAS 20-39 vs ADAS 5-19): 0.864 | Ratio of ethanolamine phospholipid ratio to M01, ADAS 40-70 to 5-19, Male ([2]; serum, males, SDAT ADAS 40-70 vs ADAS 5-19): 0.732 | Ratio of ethanolamine phospholipid ratio to M01, ADAS 40-70 to 20-39, Male ([2]; serum, males, SDAT ADAS 40-70 vs ADAS 20-39): 0.847 | Ethanolamine phospholipid ratio to M01, Mean, Age Ctl, 30-39, Male ([2]; serum, males, age control 30-39): 0.294 | Ethanolamine phospholipid ratio to M01, Mean, Age Ctl, 40-49, Male ([2]; serum, males, age control 40-49): 0.242 | Ethanolamine phospholipid ratio to M01, Mean, Age Ctl, 50-59, Male ([2]; serum, males, age control 50-59): 0.332 | Ethanolamine phospholipid ratio to M01, Mean, Age Ctl, 60-69, Male ([2]; serum, males, age control 60-69): 0.316 | Ethanolamine phospholipid ratio to M01, Mean, Age Ctl, 70+_Male ([2]; serum, males, age control 70+): 0.363 | Ethanolamine phospholipid ratio to M01, Mean, Post Mortem SDAT Male ([2]; serum, males, post mortem SDAT): 0.115 | Ratio of ethanolamine phospholipid ratio to M01, SDAT vs Control (post mortem, males) ([2]; serum, males, post mortem SDAT vs post mortem control): 0.542 | Ethanolamine phospholipid ratio to M01, Mean, Post Mortem Ctl, Male ([2]; serum, males, post mortem control): 0.212
